The supplement of paper PMC10849652
The other results are listed elsewhere or left out.

Sequences of proteins named here, by UniProt entry; tags and fusion partners are left off. A change or cut given only in a name is not applied to a line headed by its entry.
UniProt Q5VZL5: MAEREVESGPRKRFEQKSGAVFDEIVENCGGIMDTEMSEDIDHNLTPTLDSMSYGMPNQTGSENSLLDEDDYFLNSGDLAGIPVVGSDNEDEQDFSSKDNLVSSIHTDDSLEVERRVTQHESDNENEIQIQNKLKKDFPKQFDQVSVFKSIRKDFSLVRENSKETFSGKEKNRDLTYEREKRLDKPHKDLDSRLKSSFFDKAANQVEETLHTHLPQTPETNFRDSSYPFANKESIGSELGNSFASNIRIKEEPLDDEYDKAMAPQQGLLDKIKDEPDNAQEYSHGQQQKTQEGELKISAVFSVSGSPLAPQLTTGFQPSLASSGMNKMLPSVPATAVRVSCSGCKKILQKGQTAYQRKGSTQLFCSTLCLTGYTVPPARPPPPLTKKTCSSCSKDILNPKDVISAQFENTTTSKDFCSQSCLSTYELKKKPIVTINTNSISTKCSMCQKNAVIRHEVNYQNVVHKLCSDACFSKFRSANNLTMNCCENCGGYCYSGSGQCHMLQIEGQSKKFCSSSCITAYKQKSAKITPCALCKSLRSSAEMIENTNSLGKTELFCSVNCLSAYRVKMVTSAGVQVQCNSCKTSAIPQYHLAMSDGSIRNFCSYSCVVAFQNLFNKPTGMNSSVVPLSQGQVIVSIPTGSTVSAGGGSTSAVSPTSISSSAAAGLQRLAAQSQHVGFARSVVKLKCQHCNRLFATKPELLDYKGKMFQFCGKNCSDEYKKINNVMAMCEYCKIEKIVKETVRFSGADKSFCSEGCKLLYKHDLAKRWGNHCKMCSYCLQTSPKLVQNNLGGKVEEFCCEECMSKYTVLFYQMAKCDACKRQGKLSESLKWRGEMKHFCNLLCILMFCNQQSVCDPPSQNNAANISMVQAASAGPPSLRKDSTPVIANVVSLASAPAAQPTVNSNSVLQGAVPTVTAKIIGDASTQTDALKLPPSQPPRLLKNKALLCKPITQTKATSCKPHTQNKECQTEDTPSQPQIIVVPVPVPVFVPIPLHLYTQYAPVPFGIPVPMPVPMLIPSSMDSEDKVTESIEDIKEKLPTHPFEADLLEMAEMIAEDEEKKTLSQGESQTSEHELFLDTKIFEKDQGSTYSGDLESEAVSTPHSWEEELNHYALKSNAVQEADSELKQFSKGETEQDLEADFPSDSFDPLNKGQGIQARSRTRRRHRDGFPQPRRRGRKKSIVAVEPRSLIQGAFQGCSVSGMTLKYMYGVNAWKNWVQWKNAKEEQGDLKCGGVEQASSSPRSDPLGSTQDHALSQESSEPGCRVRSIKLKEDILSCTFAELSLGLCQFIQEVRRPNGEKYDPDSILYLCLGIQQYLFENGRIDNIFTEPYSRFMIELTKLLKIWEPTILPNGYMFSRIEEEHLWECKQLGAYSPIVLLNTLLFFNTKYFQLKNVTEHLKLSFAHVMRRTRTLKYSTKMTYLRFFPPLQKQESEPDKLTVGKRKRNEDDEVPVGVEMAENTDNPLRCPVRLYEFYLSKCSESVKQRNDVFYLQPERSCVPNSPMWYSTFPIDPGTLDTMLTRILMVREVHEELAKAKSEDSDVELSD
UniProt Q9Y5V0: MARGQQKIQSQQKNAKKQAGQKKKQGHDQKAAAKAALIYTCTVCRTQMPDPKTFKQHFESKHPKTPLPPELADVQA
UniProt P17026: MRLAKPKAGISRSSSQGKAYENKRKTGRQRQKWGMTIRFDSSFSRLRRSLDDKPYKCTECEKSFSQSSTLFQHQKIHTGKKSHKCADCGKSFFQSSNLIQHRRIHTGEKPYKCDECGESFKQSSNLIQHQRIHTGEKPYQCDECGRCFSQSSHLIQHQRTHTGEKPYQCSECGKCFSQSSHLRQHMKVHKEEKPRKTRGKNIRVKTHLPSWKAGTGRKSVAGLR
UniProt O43670: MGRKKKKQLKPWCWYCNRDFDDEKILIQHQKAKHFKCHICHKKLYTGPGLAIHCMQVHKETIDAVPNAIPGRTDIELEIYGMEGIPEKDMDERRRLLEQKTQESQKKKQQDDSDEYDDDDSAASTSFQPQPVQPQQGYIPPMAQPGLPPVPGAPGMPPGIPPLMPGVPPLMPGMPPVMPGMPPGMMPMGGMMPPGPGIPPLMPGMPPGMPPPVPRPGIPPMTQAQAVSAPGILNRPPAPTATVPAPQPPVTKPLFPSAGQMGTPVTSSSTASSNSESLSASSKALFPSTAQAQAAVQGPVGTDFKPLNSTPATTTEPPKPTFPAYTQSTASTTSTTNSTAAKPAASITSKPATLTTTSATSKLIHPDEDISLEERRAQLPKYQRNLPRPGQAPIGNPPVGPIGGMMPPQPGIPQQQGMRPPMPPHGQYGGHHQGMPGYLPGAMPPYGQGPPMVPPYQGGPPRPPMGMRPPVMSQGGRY
UniProt Q9UHR6: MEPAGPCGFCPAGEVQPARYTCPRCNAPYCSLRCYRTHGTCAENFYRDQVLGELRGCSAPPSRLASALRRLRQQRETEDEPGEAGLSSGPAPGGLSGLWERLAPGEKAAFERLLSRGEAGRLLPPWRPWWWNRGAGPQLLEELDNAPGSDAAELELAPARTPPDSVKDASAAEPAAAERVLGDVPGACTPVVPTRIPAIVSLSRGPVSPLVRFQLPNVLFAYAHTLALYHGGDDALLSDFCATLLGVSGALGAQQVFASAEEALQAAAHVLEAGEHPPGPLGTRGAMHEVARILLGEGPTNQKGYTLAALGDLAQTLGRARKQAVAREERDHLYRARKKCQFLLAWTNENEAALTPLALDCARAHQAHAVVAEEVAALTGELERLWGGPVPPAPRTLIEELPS
UniProt P17028: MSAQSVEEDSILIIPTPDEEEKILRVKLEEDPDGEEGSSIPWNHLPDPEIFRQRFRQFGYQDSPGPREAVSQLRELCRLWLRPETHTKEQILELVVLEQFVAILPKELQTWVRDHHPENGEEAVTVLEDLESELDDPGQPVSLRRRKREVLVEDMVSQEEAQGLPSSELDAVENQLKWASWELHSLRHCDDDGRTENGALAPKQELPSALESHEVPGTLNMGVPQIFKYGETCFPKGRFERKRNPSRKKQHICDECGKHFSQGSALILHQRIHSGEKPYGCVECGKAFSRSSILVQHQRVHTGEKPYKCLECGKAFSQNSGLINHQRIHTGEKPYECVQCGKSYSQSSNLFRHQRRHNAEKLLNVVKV
UniProt Q9NWK9: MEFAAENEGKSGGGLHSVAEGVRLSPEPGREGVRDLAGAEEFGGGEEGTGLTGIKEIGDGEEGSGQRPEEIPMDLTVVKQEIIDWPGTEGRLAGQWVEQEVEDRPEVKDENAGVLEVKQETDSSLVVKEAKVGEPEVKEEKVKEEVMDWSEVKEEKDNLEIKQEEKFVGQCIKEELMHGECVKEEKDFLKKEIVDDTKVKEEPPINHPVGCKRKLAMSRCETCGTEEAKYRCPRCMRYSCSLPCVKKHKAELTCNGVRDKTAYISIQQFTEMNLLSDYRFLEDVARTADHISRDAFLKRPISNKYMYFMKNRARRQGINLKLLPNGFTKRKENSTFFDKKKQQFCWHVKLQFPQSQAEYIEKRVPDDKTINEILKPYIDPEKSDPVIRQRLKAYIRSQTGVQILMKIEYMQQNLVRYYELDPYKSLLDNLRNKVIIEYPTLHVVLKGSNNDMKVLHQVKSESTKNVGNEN
UniProt Q14202: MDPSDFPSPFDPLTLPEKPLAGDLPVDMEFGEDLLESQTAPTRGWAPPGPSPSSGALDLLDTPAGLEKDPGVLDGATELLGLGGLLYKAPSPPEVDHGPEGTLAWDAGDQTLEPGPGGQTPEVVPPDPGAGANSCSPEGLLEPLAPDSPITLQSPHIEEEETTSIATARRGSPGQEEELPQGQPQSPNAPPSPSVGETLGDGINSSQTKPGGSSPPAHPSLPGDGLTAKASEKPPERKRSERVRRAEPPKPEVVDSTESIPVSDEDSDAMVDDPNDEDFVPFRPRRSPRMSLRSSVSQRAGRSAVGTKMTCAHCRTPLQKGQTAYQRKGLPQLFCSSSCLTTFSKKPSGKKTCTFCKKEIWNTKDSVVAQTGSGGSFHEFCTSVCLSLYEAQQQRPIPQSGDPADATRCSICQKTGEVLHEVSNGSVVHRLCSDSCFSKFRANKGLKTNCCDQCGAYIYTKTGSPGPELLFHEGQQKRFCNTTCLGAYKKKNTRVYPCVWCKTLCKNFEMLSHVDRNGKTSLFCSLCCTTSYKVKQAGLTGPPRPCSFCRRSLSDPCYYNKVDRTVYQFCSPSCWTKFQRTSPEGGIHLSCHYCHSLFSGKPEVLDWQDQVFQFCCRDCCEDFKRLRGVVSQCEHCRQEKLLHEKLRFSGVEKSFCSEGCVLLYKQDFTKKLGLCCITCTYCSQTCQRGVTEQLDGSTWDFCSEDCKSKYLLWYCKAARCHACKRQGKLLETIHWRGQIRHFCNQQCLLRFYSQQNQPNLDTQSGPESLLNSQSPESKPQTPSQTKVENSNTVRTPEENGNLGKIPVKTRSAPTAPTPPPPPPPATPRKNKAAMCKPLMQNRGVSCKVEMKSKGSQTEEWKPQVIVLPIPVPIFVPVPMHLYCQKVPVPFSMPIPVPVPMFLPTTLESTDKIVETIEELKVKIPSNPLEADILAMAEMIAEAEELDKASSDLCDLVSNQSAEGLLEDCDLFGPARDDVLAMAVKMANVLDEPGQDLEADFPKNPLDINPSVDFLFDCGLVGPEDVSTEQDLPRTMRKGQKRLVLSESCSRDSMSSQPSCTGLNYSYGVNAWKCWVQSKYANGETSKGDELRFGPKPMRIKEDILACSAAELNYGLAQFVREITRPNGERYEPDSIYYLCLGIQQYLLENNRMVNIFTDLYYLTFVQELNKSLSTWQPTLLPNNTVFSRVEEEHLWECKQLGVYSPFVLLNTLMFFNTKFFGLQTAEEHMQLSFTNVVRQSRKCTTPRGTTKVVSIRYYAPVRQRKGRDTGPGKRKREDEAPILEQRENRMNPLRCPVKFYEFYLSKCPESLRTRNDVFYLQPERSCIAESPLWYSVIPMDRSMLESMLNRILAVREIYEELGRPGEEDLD
UniProt O00488: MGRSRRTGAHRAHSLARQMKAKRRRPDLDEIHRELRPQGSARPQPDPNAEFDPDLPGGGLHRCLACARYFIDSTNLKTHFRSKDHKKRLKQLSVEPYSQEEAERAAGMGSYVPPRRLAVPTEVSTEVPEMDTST
UniProt Q96NC0: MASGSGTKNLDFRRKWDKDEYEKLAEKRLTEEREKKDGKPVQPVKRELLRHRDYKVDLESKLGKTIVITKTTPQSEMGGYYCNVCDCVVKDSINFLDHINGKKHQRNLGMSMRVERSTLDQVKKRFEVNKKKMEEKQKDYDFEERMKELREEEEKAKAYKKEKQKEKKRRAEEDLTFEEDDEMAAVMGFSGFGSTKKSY
UniProt Q9C0D3: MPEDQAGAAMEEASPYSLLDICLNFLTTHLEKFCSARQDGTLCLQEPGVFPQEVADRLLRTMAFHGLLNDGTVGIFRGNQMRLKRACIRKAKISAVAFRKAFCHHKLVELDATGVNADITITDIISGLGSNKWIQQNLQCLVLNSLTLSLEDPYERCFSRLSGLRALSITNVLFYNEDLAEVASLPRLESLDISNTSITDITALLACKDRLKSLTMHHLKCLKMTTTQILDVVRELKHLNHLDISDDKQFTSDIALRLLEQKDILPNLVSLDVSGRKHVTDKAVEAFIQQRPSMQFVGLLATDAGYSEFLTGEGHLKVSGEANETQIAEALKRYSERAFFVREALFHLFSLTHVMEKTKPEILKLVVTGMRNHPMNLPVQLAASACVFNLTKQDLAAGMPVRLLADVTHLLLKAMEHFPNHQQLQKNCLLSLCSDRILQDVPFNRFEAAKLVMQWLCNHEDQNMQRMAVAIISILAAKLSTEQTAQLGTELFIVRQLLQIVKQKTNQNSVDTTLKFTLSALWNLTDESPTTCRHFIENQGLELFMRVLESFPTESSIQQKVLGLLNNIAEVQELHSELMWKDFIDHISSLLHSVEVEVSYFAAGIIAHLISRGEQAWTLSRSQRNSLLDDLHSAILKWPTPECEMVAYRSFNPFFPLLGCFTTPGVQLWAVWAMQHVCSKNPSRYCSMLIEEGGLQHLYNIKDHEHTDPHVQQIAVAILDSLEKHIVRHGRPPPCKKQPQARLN
UniProt Q8NAF0: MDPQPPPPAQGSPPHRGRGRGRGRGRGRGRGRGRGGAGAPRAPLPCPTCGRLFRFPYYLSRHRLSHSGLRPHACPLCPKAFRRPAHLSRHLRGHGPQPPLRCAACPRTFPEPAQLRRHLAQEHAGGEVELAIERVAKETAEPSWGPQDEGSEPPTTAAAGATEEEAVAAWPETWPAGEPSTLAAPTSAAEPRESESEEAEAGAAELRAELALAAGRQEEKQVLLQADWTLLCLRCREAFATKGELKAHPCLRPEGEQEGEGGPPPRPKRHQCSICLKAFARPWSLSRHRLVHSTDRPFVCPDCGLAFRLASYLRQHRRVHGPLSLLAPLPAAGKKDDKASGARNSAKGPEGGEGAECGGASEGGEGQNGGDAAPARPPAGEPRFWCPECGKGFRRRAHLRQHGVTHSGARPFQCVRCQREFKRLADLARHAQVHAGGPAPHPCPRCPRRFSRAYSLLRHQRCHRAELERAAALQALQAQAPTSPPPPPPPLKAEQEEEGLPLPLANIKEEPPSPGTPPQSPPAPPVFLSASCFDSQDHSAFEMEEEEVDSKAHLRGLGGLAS

Tests used:
Assay in all cases: log2 fold change, soluble protein after heating vs DMSO (PISA); higher = thermal stabilisation; K562 lysate, 10 uM; active = over 0.2 and 3.5 SD of the protein, either way, in both replicates (recomputed)
lapatinib = compound: CS(=O)(=O)CCNCc1ccc(-c2ccc3ncnc(Nc4ccc(OCc5cccc(F)c5)c(Cl)c4)c3c2)o1 [lapatinib]
Procedure, shortened: (§1)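 The values are log-two fold changes in thermal stability compared with solvent controls and come from duplicates. They were obtained by TMTpro 16plex LC-MS/MS, with channel sums equalised, on the supernatant after 21,000xg for 90 min. That supernatant came from crude K562 extract at 1 mg/mL protein treated with 10 μM compound for 30 min, heated for 3 min across 48°C-58°C, pooled and brought to 0.5% NP-40 at 4°C.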

pictilisib = compound: CS(=O)(=O)N1CCN(Cc2cc3nc(-c4cccc5[nH]ncc45)nc(N4CCOCC4)c3s2)CC1 [pictilisib]
Procedure, shortened: as §1

crizotinib = compound: C[C@@H](Oc1cc(-c2cnn(C3CCNCC3)c2)cnc1N)c1c(Cl)ccc(F)c1Cl [crizotinib]
Procedure, shortened: as §1

[1] = compound: C[C@H](C1=CC=C(C=C1)C(=O)NC2=C3C=CNC3=NC=C2)N
Procedure, shortened: as §1

duvelisib = compound: C[C@H](Nc1ncnc2nc[nH]c12)c1cc2cccc(Cl)c2c(=O)n1-c1ccccc1 [duvelisib]
Procedure, shortened: as §1

gandotinib = compound: Cc1cc(Nc2cc(CN3CCOCC3)c3nc(C)c(Cc4ccc(Cl)cc4F)n3n2)n[nH]1 [gandotinib]
Procedure, shortened: as §1

tozasertib = compound: Cc1cc(Nc2cc(N3CCN(C)CC3)nc(Sc3ccc(NC(=O)C4CC4)cc3)n2)n[nH]1 [tozasertib]
Procedure, shortened: as §1

doramapimod = compound: Cc1ccc(-n2nc(C(C)(C)C)cc2NC(=O)Nc2ccc(OCCN3CCOCC3)c3ccccc23)cc1 [doramapimod]
Procedure, shortened: as §1

bafetinib = compound: Cc1ccc(NC(=O)c2ccc(CN3CC[C@H](N(C)C)C3)c(C(F)(F)F)c2)cc1Nc1nccc(-c2cncnc2)n1 [bafetinib]
Procedure, shortened: as §1

[2] = compound: Cc1cccc(CC(=O)N2CCc3c2ccc(-c2cn(C)c4ncnc(N)c24)c3F)n1
Procedure, shortened: as §1

Measured: log2 fold change

ZMYM4 (UniProt Q5VZL5)
inactive: lapatinib -0.022 | pictilisib 0.037 | crizotinib -0.009 | [1] -0.07 | duvelisib -0.007 | gandotinib 0.004 | tozasertib 0.028 | doramapimod 0.031 | bafetinib 0.008 | [2] 0.042

ZNF277 (UniProt Q9NRM2)
inactive: lapatinib -0.102 | pictilisib -0.069 | crizotinib -0.029 | [1] -0.101 | duvelisib -0.007 | gandotinib -0.034 | tozasertib -0.001 | doramapimod 0.012 | bafetinib -0.192 | [2] 0.081

ZNF609 (UniProt O15014)
inactive: lapatinib 0.023 | pictilisib -0.054 | crizotinib 0.026 | [1] -0.028 | duvelisib -0.042 | gandotinib 0.16 | tozasertib 0.024 | doramapimod -0.064 | bafetinib -0.111 | [2] 0.187

ZNF330 (UniProt Q9Y3S2)
inactive: lapatinib 0.026 | pictilisib 0.008 | crizotinib 0.013 | [1] -0.03 | duvelisib -0.031 | gandotinib 0.067 | tozasertib 0 | doramapimod 0.008 | bafetinib -0.022 | [2] -0.003

ZKSCAN1 (UniProt P17029)
inactive: lapatinib -0.016 | pictilisib -0.009 | crizotinib -0.014 | [1] 0.035 | duvelisib -0.074 | gandotinib -0.022 | tozasertib 0.051 | doramapimod 0.012 | bafetinib -0.054 | [2] -0.004

ZNF706 (UniProt Q9Y5V0)
inactive: lapatinib -0.013 | pictilisib 0.023 | crizotinib 0.023 | [1] -0.029 | duvelisib 0.033 | gandotinib 0.07 | tozasertib 0.061 | doramapimod 0.067 | bafetinib 0.028 | [2] 0.035

ZNF346 (UniProt Q9UL40)
inactive: lapatinib 0.01 | pictilisib -0.008 | crizotinib 0.009 | [1] -0.01 | duvelisib -0.009 | gandotinib -0.026 | tozasertib 0.005 | doramapimod 0.02 | bafetinib -0.043 | [2] -0.072

ZNF22 (UniProt P17026)
inactive: lapatinib -0.025 | pictilisib -0.016 | crizotinib 0.003 | [1] 0.087 | duvelisib -0.109 | gandotinib -0.001 | tozasertib 0.075 | doramapimod -0.043 | bafetinib -0.051 | [2] -0.032

Two records picked at random from the list so far:
ZKSCAN1 (UniProt P17029)
inactive: lapatinib -0.016 | pictilisib -0.009 | crizotinib -0.014 | [1] 0.035 | duvelisib -0.074 | gandotinib -0.022 | tozasertib 0.051 | doramapimod 0.012 | bafetinib -0.054 | [2] -0.004

ZNF22 (UniProt P17026)
inactive: lapatinib -0.025 | pictilisib -0.016 | crizotinib 0.003 | [1] 0.087 | duvelisib -0.109 | gandotinib -0.001 | tozasertib 0.075 | doramapimod -0.043 | bafetinib -0.051 | [2] -0.032

Later entries

ZNF207 isoform 4 (UniProt O43670)
inactive: lapatinib -0.008 | pictilisib -0.058 | crizotinib 0.03 | [1] 0.002 | duvelisib -0.036 | gandotinib 0.03 | tozasertib -0.041 | doramapimod -0.053 | bafetinib -0.021 | [2] -0.086

ZNHIT2 (UniProt Q9UHR6)
inactive: lapatinib 0.068 | pictilisib -0.234 | crizotinib -0.088 | [1] 0.024 | duvelisib -0.047 | gandotinib 0.254 | tozasertib 0.006 | doramapimod 0.019 | bafetinib -0.101 | [2] -0.07

ZNF358 (UniProt Q9NW07)
inactive: lapatinib 0.036

ZRANB2 (UniProt O95218)
inactive: lapatinib -0.004 | pictilisib 0.01 | crizotinib -0.031 | [1] 0.072 | duvelisib 0.031 | gandotinib -0.01 | tozasertib -0.012 | doramapimod 0.059 | bafetinib 0.031 | [2] -0.004

ZNF787 (UniProt Q6DD87)
inactive: lapatinib -0.069 | pictilisib 0.004 | crizotinib 0.024 | [1] 0.014 | duvelisib -0.02 | gandotinib 0.146 | tozasertib 0.023 | doramapimod -0.058 | bafetinib 0.031 | [2] -0.021

ZMIZ1 (UniProt Q9ULJ6)
inactive: lapatinib 0.012 | pictilisib -0.031 | crizotinib 0.025 | [1] -0.177 | duvelisib -0.025 | gandotinib 0.04 | tozasertib -0.011 | doramapimod 0.021 | bafetinib -0.029 | [2] 0.091

ZNF24 (UniProt P17028)
inactive: lapatinib 0.079 | pictilisib -0.045 | crizotinib -0.005 | [1] 0.026 | duvelisib -0.04 | gandotinib -0.07 | tozasertib 0.006 | doramapimod 0.085 | bafetinib 0.045 | [2] -0.035

ZNHIT6 (UniProt Q9NWK9)
inactive: lapatinib 0.042 | pictilisib 0.006 | crizotinib -0.006 | [1] 0.061 | duvelisib -0.002 | gandotinib 0.008 | tozasertib -0.029 | doramapimod -0.024 | bafetinib -0.026 | [2] -0.004

ZMYM3 (UniProt Q14202)
inactive: lapatinib 0.041 | pictilisib -0.006 | crizotinib -0.072 | [1] -0.02 | duvelisib 0.02 | gandotinib 0.017 | tozasertib 0.015 | doramapimod 0.006 | bafetinib 0.028 | [2] 0.006

ZNF593 (UniProt O00488)
inactive: lapatinib -0.114 | pictilisib 0.078 | crizotinib 0.113 | [1] -0.087 | duvelisib 0.089 | gandotinib 0.016 | tozasertib 0.047 | doramapimod 0.033 | bafetinib 0.059 | [2] 0.045

ZNF592 (UniProt Q92610)
inactive: lapatinib 0.051 | pictilisib -0.06 | crizotinib -0.062 | [1] 0.053 | duvelisib 0.046 | gandotinib -0.122 | tozasertib -0.019 | doramapimod 0.14 | bafetinib -0.25 | [2] 0.122

ZMAT2 (UniProt Q96NC0)
inactive: lapatinib 0.006 | pictilisib 0.003 | crizotinib -0.005 | [1] 0.02 | duvelisib -0.034 | gandotinib -0.035 | tozasertib -0.028 | doramapimod 0.042 | bafetinib 0.053 | [2] -0.043

ZYG11B (UniProt Q9C0D3)
inactive: lapatinib 0.026 | pictilisib -0.021 | crizotinib -0.087 | [1] -0.039 | duvelisib 0.015 | gandotinib 0.015 | tozasertib -0.009 | doramapimod -0.025 | bafetinib -0.021 | [2] 0.058

ZNF579 (UniProt Q8NAF0)
inactive: lapatinib -0.027 | pictilisib -0.051 | crizotinib -0.036 | [1] 0 | duvelisib 0.169 | gandotinib 0.041 | tozasertib -0.006 | doramapimod 0.043 | bafetinib -0.084 | [2] 0.054

ZNF618 (UniProt Q5T7W0)
inactive: lapatinib 0 | pictilisib 0.012 | crizotinib -0.038 | [1] -0.028 | duvelisib -0.015 | gandotinib 0.065 | tozasertib 0.016 | doramapimod 0.036 | bafetinib -0.036 | [2] 0.041

ZW10 (UniProt O43264)
inactive: lapatinib -0.048 | pictilisib 0.003 | crizotinib -0.089 | [1] -0.034 | duvelisib 0.011 | gandotinib -0.067 | tozasertib 0.008 | doramapimod -0.013 | bafetinib -0.038 | [2] 0.03

ZNF672 (UniProt Q499Z4)
inactive: lapatinib -0.019 | pictilisib 0.016 | crizotinib 0.046 | [1] 0.117 | duvelisib -0.074 | gandotinib -0.209 | tozasertib -0.023 | doramapimod -0.054 | bafetinib -0.078 | [2] -0.069

ZNF629 (UniProt Q9UEG4)
inactive: lapatinib -0.043 | pictilisib -0.012 | crizotinib 0.009 | [1] 0.021 | duvelisib 0.028 | gandotinib 0.001 | tozasertib -0.065 | doramapimod -0.005 | bafetinib 0.03 | [2] 0.143

ZNF451 (UniProt Q9Y4E5)
inactive: lapatinib -0.044 | pictilisib -0.054 | crizotinib -0.042 | [1] -0.053 | duvelisib 0.007 | gandotinib -0.069 | tozasertib -0.045 | doramapimod 0.052 | bafetinib -0.074 | [2] 0.003

ZNRD2 (UniProt G3V1B8)
inactive: lapatinib 0.169 | pictilisib -0.07 | crizotinib -0.005 | [1] -0.061 | duvelisib 0.005 | gandotinib 0.235 | tozasertib 0.109 | doramapimod 0.04 | bafetinib 0.014 | [2] 0.255
